Data published in the supplement of paper PMC3545927.
The list shows a part of the results, in another mix than the full data.

By UniProt entry, the sequences of proteins in these tests, tags left out.
furin, P09958, UniProt P09958, whole entry: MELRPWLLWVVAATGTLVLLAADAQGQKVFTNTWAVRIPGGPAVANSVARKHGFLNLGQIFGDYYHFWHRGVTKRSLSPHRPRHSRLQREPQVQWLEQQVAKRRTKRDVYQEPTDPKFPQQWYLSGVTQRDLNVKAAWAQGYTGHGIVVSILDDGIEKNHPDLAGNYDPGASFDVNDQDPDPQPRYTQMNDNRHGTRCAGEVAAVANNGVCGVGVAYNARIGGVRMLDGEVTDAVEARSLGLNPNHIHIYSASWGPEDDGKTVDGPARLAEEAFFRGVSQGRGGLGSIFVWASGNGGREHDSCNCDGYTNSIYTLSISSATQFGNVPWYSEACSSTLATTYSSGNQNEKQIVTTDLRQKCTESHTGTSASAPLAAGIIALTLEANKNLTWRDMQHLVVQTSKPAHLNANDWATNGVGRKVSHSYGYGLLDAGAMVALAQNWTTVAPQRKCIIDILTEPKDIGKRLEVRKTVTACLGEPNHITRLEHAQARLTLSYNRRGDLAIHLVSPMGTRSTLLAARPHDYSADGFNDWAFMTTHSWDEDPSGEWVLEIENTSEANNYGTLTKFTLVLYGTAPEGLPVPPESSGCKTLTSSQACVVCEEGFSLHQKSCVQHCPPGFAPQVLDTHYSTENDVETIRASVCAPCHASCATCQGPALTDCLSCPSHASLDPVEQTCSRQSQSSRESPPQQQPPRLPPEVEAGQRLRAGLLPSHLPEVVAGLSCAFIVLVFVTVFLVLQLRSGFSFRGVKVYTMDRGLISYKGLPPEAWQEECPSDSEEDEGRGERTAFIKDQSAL

Molecular target: furin, P09958
Assay: furin cleavage Z-score vs untreated control; higher = more cleavage, active = 3.5 or more, inactive = 1 or less, 8 variable residues between constant flanks
Outline: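 Reactions of 0.01 ml ran for 7.5, 15 or 30 min in 50 mM HEPES pH 7.5 with CaCl2 and NaCl, at 1:10 enzyme:substrate. In them, purified furin acted on bead-held 8-mer peptides fused to a cDNA oligonucleotide. The cleavage Z-score was obtained by lowess-adjusting log sequencing counts of released DNA against furin-free reactions and scaling by median absolute deviation.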

Sequence | furin cleavage Z-score (7.5 min) | furin cleavage Z-score (15 min) | furin cleavage Z-score (30 min)
CARLLRDADDAGNASASA [FS-2278] | inactive: -0.832 | inactive: -0.574 | inactive: -0.464
CADLGRHYRSAGNASASA [FS-983] | 1.95 | 3.05 | 3.2
CAMEECSMHLAGNASASA [HC1726] | 3.14 | 1.13 | 2.11
CAMEECSQHMAGNASASA [HC1766] | 1.43 | 1.54 | 1.41
CARLLRSLTHAGNASASA [FS-2993] |  |  | active: 4.05
CARPGRFDRQAGNASASA [FS-862] | 1.79 | 2.78 | 2.17
CARLRRGLPAAGNASASA [FS-2575] | 3.32 | 2.56 | 3.41
CAKEMEECSQAGNASASA [HC1794] | inactive: 0.752 | inactive: 0.717 | inactive: 0.689
CARRRRHPDDAGNASASA [FS-3063] | 3.1 | active: 4.81 | active: 3.91
CARHRRAAGGAGNASASA [FS-2144] | active: 5.47 | active: 4.69 | active: 5.6
CARQERSTKEAGNASASA [FS-2062] | 1.5 | 2.03 | 2.49
CARRKRHISVAGNASASA [FS-3262] | active: 5.85 | active: 5.59 | active: 7.18
CARRKRQVRRAGNASASA [FS-2370] | active: 6.85 | active: 8.4 | active: 6.39
CARSARAAAAAGNASASA [FS-2456] | 2.48 | 2.76 | 2.63
CARHHRFPRAAGNASASA [FS-1063] | active: 12.2 | active: 10.7 | active: 8.91
CARMKREITTAGNASASA [FS-2047] | active: 9.07 | active: 9.89 | active: 7.88
CAKGSRWKRPAGNASASA [FS-545] | 2.91 | 1.45 | 1.53
CAYRFVAPGEAGNASASA [HC910] | inactive: -0.691 | inactive: -0.942 | inactive: -0.913
CARKRRVRKDAGNASASA [FS-1560] | active: 8.86 | active: 7.9 | active: 6.61
CAEQEVPCHRAGNASASA [HC2462] | 1.83 | 2.22 | 1.53

Sequence | furin cleavage Z-score (7.5 min) | furin cleavage Z-score (15 min) | furin cleavage Z-score (30 min)
CAARRRAARGAGNASASA [FS-401] | 3.34 | 1.74 | 2.51
CAYSFRKVRDAGNASASA [FS-1506] | 1.62 | 1.48 | 2.13
CATQRREQRDAGNASASA [FS-882] | 1.33 | 2.13 | 3.41
CARQKREIDVAGNASASA [FS-3035] | active: 10.8 | active: 12.7 | active: 11.5
CARHYRNVFHAGNASASA [FS-2557] |  |  | active: 5.01
CAHPQRSKKAAGNASASA [FS-248] | inactive: -0.0765 | inactive: 0.432 | 1.4
CARARSVRARAGNASASA [HC1622] | 2.03 | 1.81 | 3.26
CAEPEVPCHRAGNASASA [HC2459] | 1.5 | 1.07 | 1.58
CAGKSRNKRQAGNASASA [FS-243] | active: 10.4 | active: 10.6 | active: 10.1
CARVRRQIHAAGNASASA [FS-2319] | active: 8.32 | active: 8.68 | active: 7.57
CAMEEASQHLAGNASASA [HC1] | 2.06 | 1.67 | 1.31
CARRKRKKKEAGNASASA [FS-712] | 1.66 | 1.49 | 2.32
CARIGRTARSAGNASASA [FS-559] | active: 14.2 | active: 12.8 | active: 11.2
CAMEECSPHLAGNASASA [HC1739] | 2.54 | 2.72 | 2.17
CAKSARSVRAAGNASASA [FS-1673] | active: 6.74 | active: 6.73 | active: 7
CARRLRALRSAGNASASA [FS-374] | 3.3 | 1.7 | 3.47
CAHQWISSECAGNASASA [HC1141] | inactive: -0.592 | inactive: -1.1 | inactive: 0.453
CAVDNRAVRSAGNASASA [FS-732] | 1.7 | 2.07 | 1.92
CAQDCTMLVCAGNASASA [HC1525] | 2.4 | 1.18 | 1.13

Some values from the entries so far.
For furin cleavage Z-score (15 min), CAMEEASQHLAGNASASA [HC1] shows 1.67
For furin cleavage Z-score (7.5 min), CAVDNRAVRSAGNASASA [FS-732] shows 1.7
